Source: PubChem BioAssay AID504793 (Drosophila RNAi Screening Center, 2011)

Assay: 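Genes required for cells to halt at G2/M after double-strand DNA breaks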 (primary screen)
Cell system: Drosophila S2R+ cells
Reagents: long dsRNA against Drosophila genes, about 0.25 µg dsRNA per well
Duration: 4 days of dsRNA, then 4 hours of drug before read-out
Conditions: doxorubicin 0.5 µM for 4 hours to cause double-strand breaks, in cells also given a low, harmless dose of dsRNA against nbs to sensitise the assay
Measurement: 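Mitotic index as the number of phospho-histone H3-positive cells in each well following doxorubicin, given as raw counts without normalisation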
Direction: mitotic cells: higher = more cells in mitosis, weaker G2 arrest
Rule for the call: 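a call needs confirmation in secondary tests, with other dsRNAs and a check of mitotic timing without damage, not just a high primary count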
Meaning of the calls: active = confirmed in follow-up tests; inactive = not confirmed
The deposit covers about 23,000 reagents; below is a random part of those with a known target gene and a result. In the full data, 62 (0.27%) are marked active. 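Calls come from follow-up tests whose scores are not deposited, so confirmed genes may have low counts here; counts are not normalised per plate.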 Raw values are not corrected between plates. Names joined by + are all predicted targets of the reagent.

Knock-down of Jhbp2 [DRSC12292] resulted in: mitotic cells, replicate 1 = 5; inactive. With knock-down of TrpRS-m [DRSC10848] the results were mitotic cells, replicate 1 = 6; inactive. After knock-down of CAH1 [DRSC29399] the results were mitotic cells, replicate 1 = 11; inactive. Pmvk [DRSC02032] gave mitotic cells, replicate 1 = 3; inactive. CG4629 [DRSC00659] gave mitotic cells, replicate 1 = 6; inactive. For CG4629 [DRSC27952], the entry reads mitotic cells, replicate 1 = 4; inactive.

With knock-down of CG12560 [DRSC02174], the record shows inactive. Against CG4681 [DRSC04481] the deposit lists mitotic cells, replicate 1 = 9; inactive. CG4681 [DRSC26116] scored mitotic cells, replicate 1 = 11; inactive. Pgm2b [DRSC05978] gave mitotic cells, replicate 1 = 3; inactive. For Pgm2b [DRSC26452], the values are mitotic cells, replicate 1 = 10; inactive. CG15209 [DRSC19655] showed mitotic cells, replicate 1 = 16; inactive.

Saf-B [DRSC16167] scored mitotic cells, replicate 1 = 9; inactive. For Saf-B [DRSC28393], the values are mitotic cells, replicate 1 = 9; inactive. CG12491 + CG34105 [DRSC04008] scored mitotic cells, replicate 1 = 5; inactive. CG12491 + CG34105 [DRSC04124] scored mitotic cells, replicate 1 = 7; inactive. Knock-down of CG12491 + CG34105 [DRSC26465] resulted in: mitotic cells, replicate 1 = 8; inactive. Silencing of bai [DRSC14388] resulted in: mitotic cells, replicate 1 = 12; inactive.

CG42361 [DRSC04391] scored mitotic cells, replicate 1 = 6; inactive. For Clp [DRSC00746], the entry reads mitotic cells, replicate 1 = 1; inactive. tos [DRSC03624] showed mitotic cells, replicate 1 = 5; inactive. CG15153 [DRSC02454] showed mitotic cells, replicate 1 = 9; inactive. After knock-down of CG15153 [DRSC26085], the record shows mitotic cells, replicate 1 = 7; inactive. Silencing of CG15561 [DRSC15100] resulted in: mitotic cells, replicate 1 = 15; inactive.

After knock-down of CG15561 [DRSC24085], the screen gave mitotic cells, replicate 1 = 11; inactive. egl [DRSC23380] showed mitotic cells, replicate 1 = 7; inactive. With knock-down of fs(1)K10 [DRSC18775] the results were mitotic cells, replicate 1 = 4; inactive. After knock-down of fs(1)K10 [DRSC25258], the screen gave mitotic cells, replicate 1 = 7; inactive. Against Ubi-p63E [DRSC22016] the deposit lists mitotic cells, replicate 1 = 10; inactive. For CG7791 [DRSC04891], the values are mitotic cells, replicate 1 = 9; inactive.

CG42319 [DRSC06645] gave mitotic cells, replicate 1 = 9; inactive. After knock-down of CG42319 [DRSC06646], the record shows mitotic cells, replicate 1 = 4; inactive. After knock-down of CG42319 [DRSC22426] the results were mitotic cells, replicate 1 = 10; inactive. CG42319 [DRSC26059] showed mitotic cells, replicate 1 = 3; inactive.

6 entries from above, reformatted.
| gene | DRSC id | mitotic cells, replicate 1 | outcome |
| --- | --- | --- | --- |
| CG4629 | DRSC27952 | 4 | inactive |
| CG12560 | DRSC02174 | – | inactive |
| CG4681 | DRSC04481 | 9 | inactive |
| CG4681 | DRSC26116 | 11 | inactive |
| Pgm2b | DRSC05978 | 3 | inactive |
| Pgm2b | DRSC26452 | 10 | inactive |
